Measurements from US20160263048A1, “BIOADHESIVE POLYMER-BASED CONTROLLED-RELEASE SYSTEMS, PRODUCTION PROCESS AND CLINICAL USES THEREOF” (priority 2010, published 2016).
For at least one compound, name, drawing or mass did not settle the structure.

Experiment: Release of TrA from films in simulated saliva
Type: physicochemical
Conditions: from PEO/HPβCD film in simulated saliva (FIG. 6A, 6B)

**Q.** Which “time to complete release of TrA” value does the source give for `CC1(C)O[C@@H]2C[C@H]3[C@@H]4CCC5=CC(=O)C=C[C@]5(C)[C@@]4(F)[C@@H](O)C[C@]3(C)[C@]2(C(=O)CO)O1` [TrA, triamcinolone acetonide] here?
**A.** ≤ 400 min
